Data from the supplement of paper PMC5949888.
Most values lie at the floor of the assay. Slopes are relative: functional sequences can read slightly below zero.

The substances below were run on Saccharomyces cerevisiae PS128 hsf1 delta, HSF1(1-493) fusion (assay: growth estimate (transactivation domain function in HSF1 fusion, heat-shock survival) (a.u. (slope of normalised read count over time)); higher = stronger growth at 37°C, i.e. more transactivation activity). Conditions: library: random library.

Substance | growth estimate
LGWMVLLGGHWKHPRKARDC | < -0.25
LGYLCQCGSETRGRRTLHRT | < -0.25
LGYPWDYGALGRTAGTCRT | < -0.25
LGYQKRFSRSWTD | < -0.25
LGYVTRTAGTRSPG | -0.246
LHAYHPTLKYGEPQWAPESN | < -0.25
LHDNMEESATLPIASERVQA | < -0.25
LHEQYSPTTGMLYGRHICPI | < -0.25
LHEVS | < -0.25
LHFRNWVPSSGAANVLKGGA | -0.246
LHGSFSETGVIYNCGNSLSW | -0.192
LHGTVMTLERGPAAYL | < -0.25
LHHAV | < -0.25
LHHIFVLYGRAKLITFASVG | < -0.25
LHHRNKRSGKALRGRHAQET | < -0.25
LHINQVGTYLAARL | < -0.25
LHKGSEHRNANHQGQATSRG | < -0.25
LHLAIFLGYAHLAK | < -0.25
LHLALVIRRCISCKAADPPG | < -0.25
LHLGAGSFVLESLT | -0.178
LHLIVSRGLGPRPSIQDRVS | < -0.25
LHLLSESGVAGGSDQ | < -0.25
LHLVIGGSEAVVALIGARNG | < -0.25
LHMSLCGTIHRSADCFSAQS | < -0.25
LHPPSVARCCGVAITLQVVA | < -0.25
LHQVCPSVLMRNSCYANRNP | < -0.25
LHR | < -0.25

Quoted at random: four records from the list
Substance | growth estimate
LHQVCPSVLMRNSCYANRNP | < -0.25
LHLLSESGVAGGSDQ | < -0.25
LHGSFSETGVIYNCGNSLSW | -0.192
LHHAV | < -0.25

(listing goes on)

Substance | growth estimate
LHRSGGNFTRSP | < -0.25
LHRTCSASWSGFMFKASTRV | < -0.25
LHSGG | < -0.25
LHSGKSGSSEVQLTFTAHRH | < -0.25
LHSGVMICQNGRLGRERWLS | < -0.25
LHSNTQLIA | < -0.25
LHSQFNSLE | < -0.25
LHSQSNTIFREIGSLSH | < -0.25
LHSQVSEGYANSK | < -0.25
LHSSSRN | < -0.25
LHTNAGMQPAMCDGIQEAPN | < -0.25
LHTSC | < -0.25
LHTSREQVMLCR | < -0.25
LHTTGTAGRQSEQARTAWTS | < -0.25
LHTV | < -0.25
LHVSSLLHRAGVFISPRIRA | < -0.25
LHWDPALAITRYG | < -0.25
LHWFFDLADRAAQDVAAAMS | 0.0927
LHWIGCQ | < -0.25
LHYHW | < -0.25
LIAKNYMHVPWVKH | < -0.25
LIALPELINSRRFGEQIPKR | < -0.25
LIDHDWPAPEDACD | < -0.25
LIFMGPEESIKKSSMVSTIR | < -0.25
LIGVDMIGSRGGTC | -0.188
LIH | < -0.25
LIHLGDFRQ | < -0.25

Substance | growth estimate
LIHTQVPKGYVPDFPG | < -0.25
LIKCERRRDLPLAAVHWCDV | < -0.25
LIKGTASAPAHSPACGPAHQ | < -0.25
LILDTSG | < -0.25
LILHALVDAPRQFEKSE | < -0.25
LILLSVQPR | < -0.25
LINGSEGAQQVTEGSWFESV | < -0.25
LINVQSLSLNSSRTKTGVGP | < -0.25
LIPGA | < -0.25
LIPGSQALVLRERGTVLLVA | < -0.25
LIQ | < -0.25
LIRLNACTL | < -0.25
LIRRDRHVDVLSCLQRLVHE | < -0.25
LISALLSASRRESCLDSIPP | < -0.25
LISNTEGYQSSQTGVTVRSP | < -0.25
LISNYQAMSSRDSVWNDRVP | < -0.25
LISVSGSRYKRVWPFAIA | < -0.25
LITDWQPK | < -0.25
LIVDPTQTACQSPL | < -0.25
LIVEGHRSERPPRESLIVAR | < -0.25
LKAWRS | < -0.25
LKCLESRPCISGGRVLPMVQ | < -0.25
LKDWICLLRSKRRSHILNRF | < -0.25
LKDYSRPCLGSQQFLDFRLV | < -0.25
LKE | < -0.25
